PubChem BioAssay AID652259, Drosophila RNAi Screening Center | 2013

- Aim: 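Knock-downs that push a Wingless-driven reporter up or down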 (primary screen)
- Cells: Drosophila clone 8 imaginal disc epithelial cells
- Reagent: long dsRNA against Drosophila genes
- Challenge: pathway stimulated by co-transfected Wingless expression plasmid
- Detection: 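Dual luciferase reads per well after Wingless plasmid stimulation: reporter firefly light and Renilla control light; activity is firefly divided by Renilla, a ratio not deposited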
- Reading the numbers: firefly reporter light: higher = more Wg reporter light, before normalisation; Renilla control light: higher = more transfected or surviving cells
- Rule for the call: 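a knock-down is a candidate when at least two out of four statistical tests show it departing from its plate mean; one test alone signals a weak candidate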
- Calls: active = candidate regulator (raises or lowers reporter); inactive = not a candidate
The screen tested about 22,000 reagents; shown is a random part of those that have a named target and a result. In the full data, 233 (1.1%) were called active. 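Light values are raw, unnormalised plate reads; the ratio scores behind the reporter calls were not deposited.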 A number with no mark means an inactive call. Reagents against one gene are numbered here. Names joined by + are all predicted targets of the reagent. Not given: the amount of reagent, the time to read-out, the dose of the treatment.

gene knocked down | dsRNA no. | reporter change call, replicate 1 | firefly reporter light, replicate 1 | firefly reporter light, replicate 2 | Renilla control light, replicate 1 | Renilla control light, replicate 2
CG9839 | 1 | – | 5031 | – | 1553 | –
Pgant2 (Polypeptide N-Acetylgalactosaminyltransferase 2) | 1 | – | 3848 | 9997 | 1648 | 4219
CG7879 | 1 | – | 10724 | – | 2557 | –
MED17 (Mediator complex subunit 17) | 1 | – | 2548 | 6016 | 1068 | 1362
gammaCOP (Coat Protein (coatomer) gamma) | 1 | – | 15835 | – | 12385 | –
Uro (Urate oxidase) | 1 | – | 3318 | 8900 | 1808 | 4179
CG31562 (retired record) | 1 | – | 14217 | – | 4507 | –
CG31562 (retired record) | 2 | – | 17971 | – | 3833 | –
CG11815 | 1 | – | 3835 | – | 1250 | –
Jon65Aiv (Jonah 65Aiv) | 1 | – | 2443 | 10762 | 1333 | 4392
CG6340 | 1 | – | 40204 | – | 8962 | –
COX6AL2 (Cytochrome c oxidase subunit 6A-like 2) | 1 | – | 12120 | – | 2240 | –
dod (dodo) | 1 | – | 25931 | – | 13716 | –
CG15753 (retired record) | 1 | – | 4422 | 7.66e5 | 1430 | 3.37e5
CG15753 (retired record) | 2 | – | 3528 | 8000 | 1360 | 2901
CG15753 (retired record) | 3 | – | 17275 | – | 10000 | –
CG15753 (retired record) | 4 | – | 16251 | – | 8729 | –
CG15753 (retired record) | 5 | – | 15987 | – | 3136 | –
CG8679 | 1 | – | 3172 | 6548 | 887 | 2817
s-cup (stanley-cup) | 1 | – | 5434 | – | 1467 | –
s-cup (stanley-cup) | 2 | – | 5684 | – | 2451 | –
Drsl3 (Drosomycin-like 3) | 1 | – | 6.84e5 | 7.00e5 | 2.16e5 | 1.54e5
t-Grip84 (testis-specific gamma-tubulin ring protein 84) | 1 | – | 977 | 6325 | 1200 | 3008
CG12693 | 1 | – | 17162 | – | 7936 | –
ms(2)35Ci (male sterile (2) 35Ci) | 1 | – | 26617 | – | 14649 | –
Ran | 1 | – | 24247 | – | 5760 | –
Ir41a (Ionotropic receptor 41a) | 1 | – | 18889 | – | 8535 | –
Ir41a (Ionotropic receptor 41a) | 2 | – | 3395 | 7928 | 425 | 2012
CG31800 | 1 | – | 9.00e5 | 8.95e5 | 4.45e5 | 4.04e5
Cht4 (Chitinase 4) | 1 | – | 3392 | 9323 | 1002 | 2867
Cds (CDP-diacylglycerol synthase) | 1 | – | 6375 | – | 2760 | –
CG1074 | 1 | – | 10956 | 6.87e5 | 4544 | 3.25e5
CG8483 | 1 | – | 4656 | – | 1606 | –
dmrt11E (doublesex-Mab related 11E) | 1 | – | 24749 | 7.35e5 | 12224 | 2.47e5
CG14100 | 1 | – | 13712 | – | 4964 | –
Trax (Translin associated factor X) | 1 | – | 4838 | – | 2192 | –
abo (abnormal oocyte) | 1 | – | 2342 | 3888 | 897 | 2823
CG8401 | 1 | – | 9190 | – | 3835 | –
CG4950 | 1 | – | 7713 | – | 3773 | –
Pde6 (Phosphodiesterase 6) | 1 | – | 3781 | – | 1777 | –
Pde6 (Phosphodiesterase 6) | 2 | – | 15607 | – | 2487 | –
Pde6 (Phosphodiesterase 6) | 3 | – | 10653 | – | 2343 | –
plh (pasang lhamu) | 1 | – | 27520 | – | 7369 | –
CG15043 | 1 | – | 20492 | – | 7556 | –
CG5191 | 1 | – | 3910 | 12372 | 1920 | 3112
CG5191 | 2 | – | 15032 | – | 3237 | –
CG5191 | 3 | – | 3.65e5 | 4.09e5 | 1.71e5 | 1.68e5
CG17230 | 1 | – | 11356 | – | 4496 | –
CG4676 | 1 | – | 6600 | – | 3429 | –
pix (pixie) | 1 | – | 2985 | 9185 | 1013 | 1858
CG43254 | 1 | – | 4592 | – | 1681 | –
CG11598 | 1 | – | 17584 | – | 6315 | –
CG10621 | 1 | – | 3280 | 3780 | 441 | 1739
CG10814 | 1 | – | 9360 | – | 4037 | –
Polr2A (RNA polymerase II subunit A) | 1 | – | 2386 | 9856 | 544 | 2219
CG6425 | 1 | – | 1873 | 7587 | 1041 | 2298
Cap-D3 + tomb | 1 | – | 2235 | 7030 | 825 | 1110
Sox102F | 1 | – | 3440 | 8081 | 1302 | 3077
mthl9 (methuselah-like 9) | 1 | – | 5136 | – | 2522 | –
Lcp9 (Larval cuticle protein 9) | 1 | – | 3453 | 6691 | 774 | 1820
CG10565 | 1 | – | 4325 | – | 1354 | –
CG17109 | 1 | – | 26434 | – | 20677 | –
CG4480 | 1 | – | 2090 | 4299 | 954 | 2283
CG7126 | 1 | – | 15172 | – | 3293 | –
CG30485 | 1 | – | 6104 | – | 2109 | –
mnb (minibrain) | 1 | Wg reporter activity raised | 21442 | – | 4592 | –
mnb (minibrain) | 2 | – | 16156 | – | 6859 | –
myd (mayday) | 1 | Wg reporter activity raised (active) | 4189 | 6152 | 345 | 736
myd (mayday) | 2 | – | 14112 | – | 1469 | –
Jasper (JIL-1 anchoring and stabilizing protein) | 1 | – | 2362 | 5466 | 925 | 1872
ninaB (neither inactivation nor afterpotential B) | 1 | – | 18569 | – | 3593 | –
siz (schizo) | 1 | – | 13093 | – | 4057 | –
siz (schizo) | 2 | – | 21040 | – | 3755 | –
siz (schizo) | 3 | – | 19147 | – | 5398 | –
